Source: PubChem BioAssay AID2685 (National Center for Advancing Translational Sciences (NCATS), 2010)
This is one part of the list. Further columns of the screen follow, without active or inactive calls. Compounds called inactive in the main read-out are mostly missing here. Potencies come from curve fits of mixed quality, noted in brackets.

Experiment: qHTS Assay for Lipid Storage Modulators in Drosophila S3 Cells;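 for cell number change: cells counted by Cell Tracker Red CMTPX staining in the red channel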
Details: BODIPY lipid droplet fluorescence, 18-24 h; for cell number change: measured here: cell count max response, cells fed with added oleic acid
How it was run: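 Drosophila S3 cells got compounds at several concentrations plus oleic acid (400 uM solution). Laser-scanning cytometry with 488 nm excitation read lipid droplets at 500-530 nm and cells at 575-640 nm. Percent activity was relative to 20 uM Triacsin C.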

[1] = measured here: cell number channel AC50, cells fed with added oleic acid
[2] = measured here: lipid fluorescence (Fed channel) AC50, cells fed with added oleic acid

Structure (SMILES)	cell number change [%]	AC50 [1]	AC50 [2]
O=C1C(NS(=O)(=O)c2cccs2)=C(N2CCN(c3cccc(Cl)c3)CC2)C(=O)c2ccccc21	-92.3	5.8 µM [falling, full curve]	4.61 µM [falling, full curve]
COc1ccccc1N1CCN(C(=O)C(C)NC(=O)c2ccco2)CC1 (stereo not drawn)	-1.43		9.2 µM [rising, partial curve]
CCC(C)(C)NC(=O)C(c1cccc(OC)c1)N(C(=O)CNC(=O)c1cccs1)c1cccnc1 (stereo not drawn)	18.7		
CCc1ccc(C(=O)NNC(=O)c2ccc3c(=O)n4c(nc3c2)CCC4)cc1			6.51 µM [rising, single point]
COC(=O)[C@H]1[C@H]2C[C@@H]3c4[nH]c5cc(OC)ccc5c4CCN3C[C@H]2C[C@@H](OC(=O)/C=C/c2cc(OC)c(OC)c(OC)c2)[C@@H]1OC	20		
CCOC(=O)CN1C(=O)CSc2ccccc21	15.1		0.92 µM [falling, full curve, poor fit]
O=C1c2cccnc2C(=O)N1Cc1ccc(S(=O)(=O)N2CCOc3ccccc32)cc1	-12.5		0.58 µM [rising, single point]
CCCN(CC1CC1)C(=S)NC(=O)c1ccc(S(=O)(=O)N2CCOCC2)cc1	14.2		
Cc1ccc(-c2ccnc(=S)[nH]2)cc1	-43.7	23.1 µM [falling, partial curve, poor fit]	4.11 µM [falling, single point]
Cc1ccc(C(=O)N/N=C\c2ccc(-c3ccc(Cl)cc3)o2)cn1	8.31	6.51 µM [rising, single point]	0.461 µM [rising, partial curve, poor fit]
Cc1ccc(-c2c3c(=O)n(C)c(=O)n(C)c3cn2Cc2cccnc2)cc1	-1.36		0.651 µM [falling, single point]
CC(C)Cc1nn2c(N)c(/C=C3\C=Nc4ccccc43)c(=O)nc2s1			0.731 µM [falling, single point]
COCCCNC(=O)CN1CCN(Cc2ccccc2Cl)C1=O			6.51 µM [falling, single point]
COc1ccc2[nH]cc(CCNC(=O)Cc3ccc(Br)cc3)c2c1	-29.9		18.4 µM [falling, single point]
COc1ccc(C(=O)COC(=O)CNC(=O)c2ccc(Cl)cc2Cl)c(OC)c1	-5.5	0.0517 µM [falling, full curve, poor fit]	
COc1ccc2[nH]c(C)c(C(=O)CN3CCN(C/C=C/c4ccccc4)CC3)c2c1		6.51 µM [rising, single point]	

Complete entries from above:
CCOC(=O)CN1C(=O)CSc2ccccc21 is listed as cell number change [%]: 15.1; AC50 [2]: 0.92 µM [falling, full curve, poor fit]
O=C1c2cccnc2C(=O)N1Cc1ccc(S(=O)(=O)N2CCOc3ccccc32)cc1 is listed as cell number change [%]: -12.5; AC50 [2]: 0.58 µM [rising, single point]
